According to PMC3522597:
No constants are given. Whether binding was seen depends on the method and setting. Binding seen in cells or lysates may run through a third protein. Binding can be weak; no strength is given.

The chains behind the UniProt entries cited, without tags or fusion partners. Where a name states a change or a piece, a line headed by the entry shows the natural chain unless it says otherwise.
UniProt Q13153: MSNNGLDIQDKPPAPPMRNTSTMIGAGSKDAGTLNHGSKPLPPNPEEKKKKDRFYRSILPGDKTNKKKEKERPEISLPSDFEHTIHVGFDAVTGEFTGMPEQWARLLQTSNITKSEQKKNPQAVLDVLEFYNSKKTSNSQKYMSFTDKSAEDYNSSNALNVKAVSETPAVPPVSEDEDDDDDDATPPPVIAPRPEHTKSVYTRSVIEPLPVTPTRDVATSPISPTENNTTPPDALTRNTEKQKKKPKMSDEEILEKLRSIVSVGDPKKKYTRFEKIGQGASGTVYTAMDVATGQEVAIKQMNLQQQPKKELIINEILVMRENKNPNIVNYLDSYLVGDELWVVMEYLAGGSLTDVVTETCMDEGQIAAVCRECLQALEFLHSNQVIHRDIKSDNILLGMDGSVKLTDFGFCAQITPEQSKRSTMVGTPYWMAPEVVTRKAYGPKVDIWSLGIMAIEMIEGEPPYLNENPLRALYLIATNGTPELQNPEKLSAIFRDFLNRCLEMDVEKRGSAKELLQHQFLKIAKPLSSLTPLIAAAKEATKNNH
UniProt P60953: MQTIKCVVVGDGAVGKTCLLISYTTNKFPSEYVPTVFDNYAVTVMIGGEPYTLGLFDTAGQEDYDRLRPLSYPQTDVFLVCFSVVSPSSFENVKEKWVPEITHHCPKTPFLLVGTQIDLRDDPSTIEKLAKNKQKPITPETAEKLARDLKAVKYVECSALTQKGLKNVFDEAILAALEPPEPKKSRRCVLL

Target: p21-activated kinase (PAK) Rac1 binding domain-GST fusion (UniProt Q13153)
Experiment: pull-down; GST effector-domain fusion on beads incubated with Du145-Mock or -KAI1/CD82 cell lysate (RIPA: 1% NP40, 0.2% SDS, 150 mM NaCl, 25 mM HEPES) at 4°C for 45 min, three washes, immunoblot; cells in regular culture, serum-starved or HGF-treated; only the target purified

- binding: binds
Substance: Cdc42, GTP-bound (from UniProt P60953 1-191)
